For some assays here: At least one compound was matched to its structure with a doubt left. Some entries share one result that the patent states for a list of compounds.
What was measured:
pig tracheal mucosa = experiment: Short circuit current (Isc) and conductance, Ussing chamber, pig; conditions: for effect on Isc, raw trace: sequential 10 μM forskolin, 0.3 μM carbachol, 10 μM benzamil, 20 μM BPO-27, 200 μM niflumic acid
Description: (§1) FIG. 4. Combined agonists inhibit sodium absorption and stimulate anion secretion by surface epithelia. (A) Cartoon of two electrogenic, ion transport pathways across airway apical epithelium: anion secretion increases surface fluid, Na+ absorption decreases surface fluid. The two pathways have opposite effects on fluid depth, but additive effects on short circuit current (Isc) because of their opposite valence and transport directions. (B) Raw trace of Isc across pig tracheal epithelium using Chart 4 software. After reaching a stable, unstimulated Isc (here, >2 h post-mounting), 10 μM forskolin, 0.3 μM carbachol, 10 μM benzamil, 20 μM benzopyrimido-pyrrolo-oxazinedione (BPO-27) and 200 μM niflumic acid were sequentially added at times shown. (C, D) Pig tracheal mucosa: averaged Δ Isc plots over time in response to (C) forskolin alone followed by forskolin+carbachol and (D) reversed order of agonist addition. (E & F) Ferret tracheal mucosa: averaged A Isc plots with same protocol as for pigs. Pig traces (C, D) are based on 10-12 experiments with tissues from 6 to 7 pigs. Ferret traces (E, F) are from 7 experiments with tissues from 5 ferrets.
Combined agonists stimulate epithelial surface anion secretion and inhibit Na^+ absorption. The surface epithelia also modify ASL. FIG. 4A is a cartoon of the main ion flows controlling ASL depth: anion-mediated fluid secretion increases, and Na^+-mediated fluid absorption decreases ASL depth. It was hypothesized that the combined agonists increase ASL depth and thus MCCV by stimulating secretion and inhibiting absorption (see also FIG. 6). […] With no counterbalancing absorption ASL depth is predicted to increase (dotted gold line in FIG. 6A) unless MCCV increases.
Inhibiting Na+ absorption would increase net fluid accumulation on the surface. […] In both cases the subsequent ΔIsc increase to carbachol+forskolin is smaller than to forskolin alone, because of their opposite effects on Isc but additive effects on ASL depth.
Electrophysiology. Intact ferret tracheal trims (˜0.5×1.0 cm^2) or pig mucosal preparations dissected from cartilage were mounted in EasyMount Ussing chambers (Physiologic Instruments, CA, USA) with exposed surface areas of 0.45 cm^2, bathed in KRB buffer at 37° C., and gassed with 95% O^2/5% CO^2. […] Total tissue conductance was calculated by applying Ohm's law to the Isc deflection resulting from a 1 mV pulse across the tissues every 20 s during the experiment. Averaged responses were reported for the last 20 min of each measurement period unless stated otherwise.

CF ferret tracheas = experiment: Mucociliary clearance velocity (MCCV) in ex vivo CF ferret tracheas; conditions: single agonist, 30 min
Description: Synergistic increases of MCCV in CF ferrets and WT pigs. […] To determine if synergistic increases of MCCV could be produced in CF ferret tracheas, tracheas from 7 transgenic adult CF ferrets of mixed genotype were tested (see “Methods” section). […] SR, synergy response by the combined agonists: 19.95±4.12, (P=0.006 SR vs. Sum). Airway tissue procurement. CF ferret tissues. […] These ferrets were raised on the CFTR modulator VX770. […] Two […]/KO ferret tracheas were used for the tracheal, single gland mucus secretion rate assay. […] All isolated CF ferret tracheal trims (2-3 cm in length) were placed in DMEM culture medium immediately after euthanasia and shipped from the University of Iowa via overnight priority express. MCCV measurement. Details are in the previous reports (16,59,60). Briefly, each whole length ferret or piglet trachea, or a CF tracheal trim, was cut open along the mid-dorsal line and mounted mucosal side up onto a Sylgard elastomer platform. For pig experiments, tracheas from newborn piglets were used because tracheas from adult pigs that had been subjected to acute experiments, our source for submucosal gland experiment, had erratic MCC velocities due to epithelial damage secondary to intubation. […] Drugs were added by bath replacement with pre-warmed bath+drug(s).

WT piglet tracheas = experiment: Mucociliary clearance velocity (MCCV) in ex vivo WT piglet tracheas; set-up: species or system pig; conditions: carbachol or forskolin alone
Description: MCCV in tracheas was measured from 2 to 5 days old WT piglets (see “Methods” section for details). […] The 8 piglet tracheas were divided into two groups and tested 4 by applying forskolin first and 4 by applying carbachol first, followed by the combined agonists.
These experiments used forskolin to elevate cAMP.
Pig tissues. Newborn WT piglet tracheas (2-5 days old) were directly obtained at the swine facility of UC Davis or from the laboratory of David Stoltz, University of Iowa, via overnight priority express. Postmortem (<1 h) tracheas from young adult Yorkshire pigs (30-50 kg) and 5-12 months old M. putorius ferrets were from animal facilities at Stanford and Gilroy/CA. All methods using animal tracheae were carried out in accordance with relevant guidelines and regulations of Stanford University and animal protocols were approved (Stanford IACUC protocol#: 10,048). Piglet tracheas were shipped in DMEM cell culture medium, other animal tissues were transported to the laboratory in cold PhysioSol™ solution (Hospira, IL/USA) and then transferred to icecold Krebs Ringer bicarbonate (KRB) buffer gassed with 95% O2 and 5% CO2 and kept at 4° C. until use. […]
MCCV (all values are in mm/min) was then measured for 90-120 min and plotted as MCCV vs time and agonist(s) in FIG. 8. […]

[1] = system: WT ferret trachealis muscle bundle; experiment: Trachealis muscle tension (force transducer); conditions: 10 mM forskolin
[2] = system: piglet or ferret tracheal rings; experiment: Airway narrowing: lumen area of thin sliced tracheal rings, carbachol; set-up: species or system pig; ferret; conditions: 0.3 mM carbachol preceded by forskolin or formoterol
Description: FIG. 2. Elevating cAMP by adenylate cyclase activation inhibited muscle tension and airway narrowing to carbachol. (A, B) To measure muscle tension, one end of an isolated WT ferret trachealis muscle bundle was secured in a Sylgard-lined Petri dish filled with KRB solution and the other end was attached by 26-gauge wire to a previously calibrated strain gauge. […] (red closed circles). Averaged responses at 10 min intervals are shown for: (C) WT piglet tracheas (n=3-7) with forskolin. […] (F). CF ferrets (n=2, one CFTRΔF/ΔF and one CFTRΔF/G551D). […] Used alone they have opposite effects: Ca^2+-elevating agonists contract muscles whereas cAMP-elevating agonists relax them. For therapeutic use, the potential for producing unwanted bronchoconstriction with the combined agonists is a safety concern. […] Tension of ferret trachealis muscle bundles was measured to increasing carbachol concentrations±[…] forskolin. […] Importantly, the protective effect was also observed in CF ferrets (FIG. 2F). Airway smooth muscle contraction measurement. Two methods were used to measure tracheal smooth muscle contraction. One is designed to measure airway narrowing using thin sliced tracheal rings. Piglet or ferret tracheal ring preparations of ˜2 mm were submerged and securely pinned on a Sylgard-lined Petri dish filled with KRB solution at 37° C. and pH 7.4. […] The other method is using a force transducer. […]

ferret tracheal mucosa = experiment: Short circuit current (Isc), Ussing chamber, ferret; conditions: WT ferrets; 30 min single agonist then 30 min combined
Description: as §1, with “ferrets. […]” for “ferrets.”
Electrophysiology. […] Total tissue conductance was calculated by applying Ohm's law to the Isc deflection resulting from a 1 mV pulse across the tissues every 20 s during the experiment. […]

WT ferret tracheas = conditions: WT ferrets, obtained previously (16); cited from earlier work

SMILES | effect on Isc, raw trace (pig tracheal mucosa; pig tracheal mucosa) | effect on MCCV (CF ferret tracheas) | effect on MCCV (WT piglet tracheas) | effect on tension increases to 0.3 and 0.6 mM carbachol [1] | effect on tension responses to higher doses of carbachol [1] | transient decrease of lumen area induced by carbachol when preceded by the agent [2] | ΔIsc, summary plots (pig tracheal mucosa; WT pigs, 30 min single agonist then 30 min combined) | effect on conductance (pig tracheal mucosa; pig tracheal mucosa, 10 μM forskolin) | ΔIsc, summary plots (ferret tracheal mucosa) | MCCV (WT ferret tracheas)
NC(=NCc1ccccc1)NC(=O)c1nc(Cl)c(N)nc1N [benzamil] | did not cause further changes in Isc or conductance |  |  |  |  |  |  |  |  | 
C=C[C@@]1(C)CC(=O)[C@]2(O)[C@@]3(C)[C@@H](O)CCC(C)(C)[C@@H]3[C@H](O)[C@H](OC(C)=O)[C@@]2(C)O1 [forskolin] | sustained Isc increase | no increase | only small increases | abolished | greatly reduced | ≤ 5% | increased ΔIsc | no measurable change in conductance | increased ΔIsc | 6.75±0.84 mm/min
